# Data as given in the supplement of paper PMC8728848.
# Some of the results follow.
# B1: SspB C123 (Streptococcus gordonii), Q54186 (protein)
# chain: MAHFHYSSLLAQPQINKEIKNEDGVDIDRTLVAKQSIGKFELKTEALTAGRPKTTSFVLVDPLPTGYKFDLDATKAASTGFDTTYDEASHTVTFKATDETLATYNADLTKPVETLHPTVVGRVLNDGATYTNNFTLTVNDAYGIKSNVVRVTTPGKPNDPDNPNNNYIKPTKVNKNKEGLNIDGKEVLAGSTNYYELTWDLDQYKGDKSSKEAIQNGFYYVDDYPEEALDVRPDLVKVADEKGNQVSGVSVQQYDSLEAAPKKVQDLLKKANITVKGAFQLFSADNPEEFYKQYVSTGTSLVITDPMTVKSEFGKTGGKYENKAYQIDFGNGYATEVVVNNVPKITPKKDVTVSLDPTSENLDGQTVQLYQTFNYRLIGGFIPQNHSEELEDYSFVDDYDQAGDQYTGNYKTFSSLNLTMKDGSVIKAGTDLTSQTTAETDATNGIVTVRFKEDFLQKISLDSPFQAETYLQMRRIAIGTFENTYVNTVNKVAYASAAALEHHHHHH
# Legend:
# Assay in all cases: glycan array binding signal (z-score within array); higher = stronger binding
# Details in all cases: glycan notation: IUPAC condensed, linker removed
# Neu5Ac(a2-3)GalNAc = biological target: Neu5Ac(a2-3)GalNAc
# Summary of the method: (§1)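 Glycan array data came from 3228 arrays in the Consortium for Functional Glycomics database, and only arrays with an available protein sequence were kept. Glycan names were put into IUPAC-condensed notation, and columns mapping to the same glycan were averaged. The binding signal is a within-array Z-score, averaged across arrays of one protein sequence run at different concentrations or buffers and across linkers. A negative Z-score can be read as non-binding.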
# [1] = biological target: Neu5Ac(a2-3)GalNAc(b1-4)GlcNAc
# Summary of the method: as §1
# [2] = biological target: Neu5Ac(a2-3)[GalNAc(b1-4)]Gal(b1-4)Glc
# Summary of the method: as §1
# [3] = biological target: Neu5Ac(a2-3)[GalNAc(b1-4)]Gal(b1-4)GlcNAc
# Summary of the method: as §1
# [4] = biological target: Neu5Ac(a2-3)[GalNAc(b1-4)]Gal(b1-4)GlcNAc(b1-3)GalNAc
# Summary of the method: as §1
# [5] = biological target: Neu5Ac(a2-3)[Neu5Ac(a2-6)]GalNAc
# Summary of the method: as §1
# Neu5Ac(a2-6)Gal = biological target: Neu5Ac(a2-6)Gal
# Summary of the method: as §1
# [6] = biological target: Neu5Ac(a2-6)Gal(b1-3)GlcNAc(b1-3)[Gal(b1-4)GlcNAc(b1-6)]Gal(b1-4)Glc
# Summary of the method: as §1
# Neu5Ac(a2-6)Gal(b1-4)Glc = biological target: Neu5Ac(a2-6)Gal(b1-4)Glc
# Summary of the method: as §1
# [7] = biological target: Neu5Ac(a2-6)Gal(b1-4)GlcNAc
# Summary of the method: as §1
# [8] = biological target: Neu5Ac(a2-6)Gal(b1-4)GlcNAc(b1-2)Man
# Summary of the method: as §1
# [9] = biological target: Neu5Ac(a2-6)Gal(b1-4)GlcNAc(b1-2)Man(a1-3)Man(b1-4)GlcNAc(b1-4)GlcNAc
# Summary of the method: as §1
# [10] = biological target: Neu5Ac(a2-6)Gal(b1-4)GlcNAc(b1-2)Man(a1-3)[Gal(b1-4)GlcNAc(b1-2)Man(a1-6)]Man(b1-4)GlcNAc(b1-4)GlcNAc
# Summary of the method: as §1
# [11] = biological target: Neu5Ac(a2-6)Gal(b1-4)GlcNAc(b1-2)Man(a1-3)[GlcNAc(b1-2)Man(a1-6)]Man(b1-4)GlcNAc(b1-4)GlcNAc
# Summary of the method: as §1
# [12] = biological target: Neu5Ac(a2-6)Gal(b1-4)GlcNAc(b1-2)Man(a1-3)[GlcNAc(b1-4)][Neu5Ac(a2-6)Gal(b1-4)GlcNAc(b1-2)Man(a1-6)]Man(b1-4)GlcNAc(b1-4)GlcNAc
# Summary of the method: as §1
# [13] = biological target: Neu5Ac(a2-6)Gal(b1-4)GlcNAc(b1-2)Man(a1-3)[Man(a1-6)]Man(b1-4)GlcNAc(b1-4)GlcNAc
# Summary of the method: as §1
# [14] = biological target: Neu5Ac(a2-6)Gal(b1-4)GlcNAc(b1-2)Man(a1-3)[Neu5Ac(a2-3)Gal(b1-4)GlcNAc(b1-2)Man(a1-6)]Man(b1-4)GlcNAc(b1-4)GlcNAc
# Summary of the method: as §1
# [15] = biological target: Neu5Ac(a2-6)Gal(b1-4)GlcNAc(b1-2)Man(a1-3)[Neu5Ac(a2-6)Gal(b1-4)GlcNAc(b1-2)Man(a1-6)]Man(b1-4)GlcNAc(b1-4)GlcNAc
# Summary of the method: as §1
# [16] = biological target: Neu5Ac(a2-6)Gal(b1-4)GlcNAc(b1-2)Man(a1-3)[Neu5Ac(a2-6)Gal(b1-4)GlcNAc(b1-2)Man(a1-6)]Man(b1-4)GlcNAc(b1-4)[Fuc(a1-6)]GlcNAc
# Summary of the method: as §1
# [17] = biological target: Neu5Ac(a2-6)Gal(b1-4)GlcNAc(b1-2)Man(a1-6)Man(b1-4)GlcNAc(b1-4)GlcNAc
# Summary of the method: as §1
# [18] = biological target: Neu5Ac(a2-6)Gal(b1-4)GlcNAc(b1-2)Man(a1-6)[Gal(b1-4)GlcNAc(b1-2)Man(a1-3)]Man(b1-4)GlcNAc(b1-4)GlcNAc
# Summary of the method: as §1
# [19] = biological target: Neu5Ac(a2-6)Gal(b1-4)GlcNAc(b1-2)Man(a1-6)[GlcNAc(b1-2)Man(a1-3)]Man(b1-4)GlcNAc(b1-4)GlcNAc
# Summary of the method: as §1
# [20] = biological target: Neu5Ac(a2-6)Gal(b1-4)GlcNAc(b1-2)Man(a1-6)[Man(a1-3)]Man(b1-4)GlcNAc(b1-4)GlcNAc
# Summary of the method: as §1
# [21] = biological target: Neu5Ac(a2-6)Gal(b1-4)GlcNAc(b1-2)[Neu5Ac(a2-6)Gal(b1-4)GlcNAc(b1-4)]Man(a1-3)[GlcNAc(b1-4)][Neu5Ac(a2-6)Gal(b1-4)GlcNAc(b1-2)[Neu5Ac(a2-6)Gal(b1-4)GlcNAc(b1-6)]Man(a1-6)]Man(b1-4)GlcNAc(b1-4)GlcNAc
# Summary of the method: as §1
# [22] = biological target: Neu5Ac(a2-6)Gal(b1-4)GlcNAc(b1-2)[Neu5Ac(a2-6)Gal(b1-4)GlcNAc(b1-4)]Man(a1-3)[GlcNAc(b1-4)][Neu5Ac(a2-6)Gal(b1-4)GlcNAc(b1-4)Man(a1-6)]Man(b1-4)GlcNAc(b1-4)GlcNAc
# Summary of the method: as §1
# [23] = biological target: Neu5Ac(a2-6)Gal(b1-4)GlcNAc(b1-2)[Neu5Ac(a2-6)Gal(b1-4)GlcNAc(b1-6)]Man(a1-6)[Neu5Ac(a2-6)Gal(b1-4)GlcNAc(b1-2)Man(a1-3)][GlcNAc(b1-4)]Man(b1-4)GlcNAc(b1-4)GlcNAc
# Summary of the method: as §1
# [24] = biological target: Neu5Ac(a2-6)Gal(b1-4)GlcNAc(b1-3)Gal(b1-3)GlcNAc
# Summary of the method: as §1
# [25] = biological target: Neu5Ac(a2-6)Gal(b1-4)GlcNAc(b1-3)Gal(b1-4)GlcNAc
# Summary of the method: as §1
# [26] = biological target: Neu5Ac(a2-6)Gal(b1-4)GlcNAc(b1-3)Gal(b1-4)GlcNAc(b1-2)Man(a1-3)[Neu5Ac(a2-6)Gal(b1-4)GlcNAc(b1-3)Gal(b1-4)GlcNAc(b1-2)Man(a1-6)]GalNAc
# Summary of the method: as §1
# [27] = biological target: Neu5Ac(a2-6)Gal(b1-4)GlcNAc(b1-3)Gal(b1-4)GlcNAc(b1-3)Gal(b1-4)GlcNAc
# Summary of the method: as §1
# [28] = biological target: Neu5Ac(a2-6)Gal(b1-4)GlcNAc(b1-3)Gal(b1-4)GlcNAc(b1-3)Gal(b1-4)GlcNAc(b1-2)Man(a1-3)[Neu5Ac(a2-6)Gal(b1-4)GlcNAc(b1-3)Gal(b1-4)GlcNAc(b1-3)Gal(b1-4)GlcNAc(b1-2)Man(a1-6)]GalNAc
# Summary of the method: as §1
# [29] = biological target: Neu5Ac(a2-6)Gal(b1-4)GlcNAc(b1-3)Gal(b1-4)GlcNAc(b1-3)GalNAc
# Summary of the method: as §1
# [30] = biological target: Neu5Ac(a2-6)Gal(b1-4)GlcNAc(b1-3)Gal(b1-4)GlcNAc(b1-3)[Neu5Ac(a2-6)Gal(b1-4)GlcNAc(b1-3)Gal(b1-4)GlcNAc(b1-6)]GalNAc
# Summary of the method: as §1
# [31] = biological target: Neu5Ac(a2-6)Gal(b1-4)GlcNAc(b1-3)Gal(b1-4)GlcNAc(b1-6)[Gal(b1-3)]GalNAc
# Summary of the method: as §1
# [32] = biological target: Neu5Ac(a2-6)Gal(b1-4)GlcNAc(b1-3)Gal(b1-4)[Fuc(a1-3)]GlcNAc(b1-3)Gal(b1-4)[Fuc(a1-3)]GlcNAc
# Summary of the method: as §1
# [33] = biological target: Neu5Ac(a2-6)Gal(b1-4)GlcNAc(b1-3)GalNAc
# Summary of the method: as §1
# [34] = biological target: Neu5Ac(a2-6)Gal(b1-4)GlcNAc(b1-3)[Neu5Ac(a2-6)Gal(b1-4)GlcNAc(b1-6)]GalNAc
# Summary of the method: as §1
# [35] = biological target: Neu5Ac(a2-6)Gal(b1-4)GlcNAc(b1-6)GalNAc
# Summary of the method: as §1
# [36] = biological target: Neu5Ac(a2-6)Gal(b1-4)GlcNAc(b1-6)[Gal(b1-3)GlcNAc(b1-3)]Gal(b1-4)Glc
# Summary of the method: as §1
# [37] = biological target: Neu5Ac(a2-6)Gal(b1-4)GlcNAc(b1-6)[Gal(b1-3)]GalNAc
# Summary of the method: as §1
# [38] = biological target: Neu5Ac(a2-6)Gal(b1-4)GlcNAc6S
# Summary of the method: as §1
# Neu5Ac(a2-6)GalNAc = biological target: Neu5Ac(a2-6)GalNAc
# Summary of the method: as §1
# [39] = biological target: Neu5Ac(a2-6)GalNAc(b1-4)GlcNAc
# Summary of the method: as §1
# [40] = biological target: Neu5Ac(a2-6)GalNAc(b1-4)GlcNAc6S
# Summary of the method: as §1
# [41] = biological target: Neu5Ac(a2-6)GlcNAc(b1-4)GlcNAc
# Summary of the method: as §1
binder,measurement,setting,value
B1,glycan array binding signal (z-score),Neu5Ac(a2-3)GalNAc,0.009
same,glycan array binding signal (z-score),[1],-0.378
same,glycan array binding signal (z-score),[2],0.61
same,glycan array binding signal (z-score),[3],-0.398
same,glycan array binding signal (z-score),[4],1.53
same,glycan array binding signal (z-score),[5],-1.05
same,glycan array binding signal (z-score),Neu5Ac(a2-6)Gal,-2.16
same,glycan array binding signal (z-score),[6],-0.04
same,glycan array binding signal (z-score),Neu5Ac(a2-6)Gal(b1-4)Glc,-0.254
same,glycan array binding signal (z-score),[7],-1.08
same,glycan array binding signal (z-score),[8],-0.49
same,glycan array binding signal (z-score),[9],-0.716
same,glycan array binding signal (z-score),[10],-1.21
same,glycan array binding signal (z-score),[11],-1.16
same,glycan array binding signal (z-score),[12],-1.05
same,glycan array binding signal (z-score),[13],-0.28
same,glycan array binding signal (z-score),[14],-0.488
same,glycan array binding signal (z-score),[15],-0.696
same,glycan array binding signal (z-score),[16],1.56
same,glycan array binding signal (z-score),[17],-0.261
same,glycan array binding signal (z-score),[18],0.189
same,glycan array binding signal (z-score),[19],-0.233
same,glycan array binding signal (z-score),[20],0.389
same,glycan array binding signal (z-score),[21],-0.16
same,glycan array binding signal (z-score),[22],0.536
same,glycan array binding signal (z-score),[23],-0.933
same,glycan array binding signal (z-score),[24],-0.017
same,glycan array binding signal (z-score),[25],-1.11
same,glycan array binding signal (z-score),[26],-0.761
same,glycan array binding signal (z-score),[27],-1.16
same,glycan array binding signal (z-score),[28],3.21
same,glycan array binding signal (z-score),[29],0.329
same,glycan array binding signal (z-score),[30],-0.256
same,glycan array binding signal (z-score),[31],0.056
same,glycan array binding signal (z-score),[32],0.632
same,glycan array binding signal (z-score),[33],0.453
same,glycan array binding signal (z-score),[34],-0.829
same,glycan array binding signal (z-score),[35],0.496
same,glycan array binding signal (z-score),[36],-0.297
same,glycan array binding signal (z-score),[37],-0.115
same,glycan array binding signal (z-score),[38],1.02
same,glycan array binding signal (z-score),Neu5Ac(a2-6)GalNAc,-0.217
same,glycan array binding signal (z-score),[39],-0.117
same,glycan array binding signal (z-score),[40],0.167
same,glycan array binding signal (z-score),[41],-1.15

# Looked up one by one from the list above:
binder,measurement,setting,value
B1,glycan array binding signal (z-score),[20],0.389
same,glycan array binding signal (z-score),[25],-1.11
same,glycan array binding signal (z-score),[3],-0.398
